PubChem BioAssay AID686938, Drosophila RNAi Screening Center, 2013

- Assay: 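Looking for CRAC channel components and the factors controlling them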 (primary screen)
- Cell system: Drosophila S2R+ cells
- Reagents: long dsRNA against Drosophila genes, about 0.25 µg dsRNA per well, roughly 10,000 cells
- Time to read-out: 5 days of knock-down before the calcium assay
- Treatment: thapsigargin (SERCA pump blocker) to empty calcium stores; entry signal taken 4 min after adding it
- Read-out: 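Duplicate raw fluo-4 intensities per well from a plate reader, at rest and four minutes after thapsigargin emptied calcium stores; entry-to-rest ratio filled for only some wells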
- Direction: calcium entry signal: higher = stronger calcium signal after store depletion; resting calcium signal: higher = higher resting calcium signal
- Units: calcium entry signal in fluorescence units; resting calcium signal in fluorescence units
- Call rule: 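Called when the plate z-score of the entry-to-rest ratio, mean of duplicates, falls below −3; wells with low overall dye signal (Fmax z below −2) or more than five off-targets excluded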
- Meaning of the calls: active = strongly reduced calcium entry; inactive = no strong reduction
The deposit covers about 23,000 reagents; this is an unselected part of those with a known target gene and a result. Over the whole deposit, 75 (0.33%) were called active. 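Raw plate signals without normalisation; calls rest on plate z-scores that were not deposited; ratio present for only 364 wells.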 A number with no mark means an inactive call. The numbers tell different reagents against one gene apart. Not given: the dose of the treatment.

Oseg6
- calcium entry signal, replicate 1: 4.63e7
- calcium entry signal, replicate 2: 6.34e7
- resting calcium signal, replicate 1: 1.98e7
- resting calcium signal, replicate 2: 2.92e7

TkR99D
- calcium entry signal, replicate 1: 4.11e7
- calcium entry signal, replicate 2: 5.00e7
- resting calcium signal, replicate 1: 2.11e7
- resting calcium signal, replicate 2: 2.26e7

CG13551
- calcium entry signal, replicate 1: 1.73e7
- calcium entry signal, replicate 2: 3.20e7
- resting calcium signal, replicate 1: 8.90e6
- resting calcium signal, replicate 2: 1.69e7

EndoGI
- calcium entry signal, replicate 1: 5.04e7
- calcium entry signal, replicate 2: 3.75e7
- resting calcium signal, replicate 1: 2.16e7
- resting calcium signal, replicate 2: 1.88e7

CG15916
- calcium entry signal, replicate 1: 3.72e7
- calcium entry signal, replicate 2: 3.45e7
- resting calcium signal, replicate 1: 1.83e7
- resting calcium signal, replicate 2: 1.55e7

CG42324 #1
- calcium entry signal, replicate 1: 3.06e7
- calcium entry signal, replicate 2: 4.92e7
- resting calcium signal, replicate 1: 1.68e7
- resting calcium signal, replicate 2: 1.98e7

CG42324 #2
- calcium entry signal, replicate 1: 3.32e7
- calcium entry signal, replicate 2: 4.45e7
- resting calcium signal, replicate 1: 1.79e7
- resting calcium signal, replicate 2: 2.01e7

CG9550
- calcium entry signal, replicate 1: 2.23e7
- calcium entry signal, replicate 2: 1.82e7
- resting calcium signal, replicate 1: 1.21e7
- resting calcium signal, replicate 2: 9.12e6

Polr3I
- calcium entry signal, replicate 1: 2.86e7
- calcium entry signal, replicate 2: 3.09e7
- resting calcium signal, replicate 1: 1.40e7
- resting calcium signal, replicate 2: 1.26e7

Spase22-23
- calcium entry signal, replicate 1: 4.35e7
- calcium entry signal, replicate 2: 6.17e7
- resting calcium signal, replicate 1: 2.30e7
- resting calcium signal, replicate 2: 2.71e7

org-1 #1
- calcium entry signal, replicate 1: 3.29e7
- calcium entry signal, replicate 2: 4.56e7
- resting calcium signal, replicate 1: 1.80e7
- resting calcium signal, replicate 2: 2.49e7

org-1 #2
- calcium entry signal, replicate 1: 4.85e7
- calcium entry signal, replicate 2: 3.49e7
- resting calcium signal, replicate 1: 2.27e7
- resting calcium signal, replicate 2: 1.37e7

Nuak #1
- calcium entry signal, replicate 1: 2.76e7
- calcium entry signal, replicate 2: 2.48e7
- resting calcium signal, replicate 1: 1.42e7
- resting calcium signal, replicate 2: 1.37e7

Nuak #2
- calcium entry signal, replicate 1: 3.73e7
- calcium entry signal, replicate 2: 5.23e7
- resting calcium signal, replicate 1: 1.65e7
- resting calcium signal, replicate 2: 2.13e7

Nuak #3
- calcium entry signal, replicate 1: 3.00e7
- calcium entry signal, replicate 2: 3.14e7
- resting calcium signal, replicate 1: 1.39e7
- resting calcium signal, replicate 2: 1.51e7

Already shown: entries from further up.
CG13551
- calcium entry signal, replicate 1: 1.73e7
- calcium entry signal, replicate 2: 3.20e7
- resting calcium signal, replicate 1: 8.90e6
- resting calcium signal, replicate 2: 1.69e7

EndoGI
- calcium entry signal, replicate 1: 5.04e7
- calcium entry signal, replicate 2: 3.75e7
- resting calcium signal, replicate 1: 2.16e7
- resting calcium signal, replicate 2: 1.88e7

The results go on.
eEF1alpha1
- calcium entry signal, replicate 1: 1.78e7
- calcium entry signal, replicate 2: 1.59e7
- resting calcium signal, replicate 1: 1.09e7
- resting calcium signal, replicate 2: 8.61e6

CG11893
- calcium entry signal, replicate 1: 3.10e7
- calcium entry signal, replicate 2: 4.96e7
- resting calcium signal, replicate 1: 1.58e7
- resting calcium signal, replicate 2: 2.18e7

Spn100A
- calcium entry signal, replicate 1: 5.62e7
- calcium entry signal, replicate 2: 5.30e7
- resting calcium signal, replicate 1: 2.56e7
- resting calcium signal, replicate 2: 2.50e7

lambdaTry
- calcium entry signal, replicate 1: 2.98e7
- calcium entry signal, replicate 2: 4.25e7
- resting calcium signal, replicate 1: 1.50e7
- resting calcium signal, replicate 2: 1.80e7

Acp32CD
- calcium entry signal, replicate 1: 2.85e7
- calcium entry signal, replicate 2: 4.10e7
- resting calcium signal, replicate 1: 1.41e7
- resting calcium signal, replicate 2: 1.73e7

anne
- calcium entry signal, replicate 1: 1.18e7
- calcium entry signal, replicate 2: 2.09e7
- resting calcium signal, replicate 1: 6.99e6
- resting calcium signal, replicate 2: 9.45e6

l(1)G0004
- calcium entry signal, replicate 1: 2.03e7
- calcium entry signal, replicate 2: 2.24e7
- resting calcium signal, replicate 1: 1.14e7
- resting calcium signal, replicate 2: 1.28e7

Polr2M
- calcium entry signal, replicate 1: 2.19e7
- calcium entry signal, replicate 2: 2.58e7
- resting calcium signal, replicate 1: 3.68e7
- resting calcium signal, replicate 2: 1.25e7

CG4839 #1
- calcium entry signal, replicate 1: 5.12e7
- resting calcium signal, replicate 1: 2.66e7

CG4839 #2
- calcium entry signal, replicate 1: 2.38e7
- calcium entry signal, replicate 2: 3.81e7
- resting calcium signal, replicate 1: 1.12e7
- resting calcium signal, replicate 2: 1.68e7

GatA
- calcium entry signal, replicate 1: 3.21e7
- calcium entry signal, replicate 2: 2.57e7
- resting calcium signal, replicate 1: 1.66e7
- resting calcium signal, replicate 2: 1.22e7

spn-D
- calcium entry signal, replicate 1: 4.10e7
- calcium entry signal, replicate 2: 3.04e7
- resting calcium signal, replicate 1: 2.09e7
- resting calcium signal, replicate 2: 1.34e7
